Data on two substances can be found in publication PMC5663849.

Protein sequences, listed by entry. Tags and fused reporters are not part of them. Residues count along the entry.
UniProt P20491, residues 19-86: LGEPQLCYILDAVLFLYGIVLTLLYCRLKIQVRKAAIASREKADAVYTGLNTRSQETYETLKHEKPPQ
UniProt O08586: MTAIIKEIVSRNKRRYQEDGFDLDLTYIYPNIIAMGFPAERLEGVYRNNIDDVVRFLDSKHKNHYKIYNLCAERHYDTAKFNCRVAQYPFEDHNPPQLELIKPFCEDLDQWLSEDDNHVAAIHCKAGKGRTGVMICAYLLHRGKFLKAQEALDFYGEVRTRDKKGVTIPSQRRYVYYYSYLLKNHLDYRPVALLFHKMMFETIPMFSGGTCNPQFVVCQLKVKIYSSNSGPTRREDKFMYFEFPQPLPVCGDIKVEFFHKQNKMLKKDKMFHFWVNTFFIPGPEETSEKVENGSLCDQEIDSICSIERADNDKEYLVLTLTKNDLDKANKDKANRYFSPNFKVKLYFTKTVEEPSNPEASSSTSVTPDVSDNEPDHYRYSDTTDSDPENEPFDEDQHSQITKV
UniProt P29351: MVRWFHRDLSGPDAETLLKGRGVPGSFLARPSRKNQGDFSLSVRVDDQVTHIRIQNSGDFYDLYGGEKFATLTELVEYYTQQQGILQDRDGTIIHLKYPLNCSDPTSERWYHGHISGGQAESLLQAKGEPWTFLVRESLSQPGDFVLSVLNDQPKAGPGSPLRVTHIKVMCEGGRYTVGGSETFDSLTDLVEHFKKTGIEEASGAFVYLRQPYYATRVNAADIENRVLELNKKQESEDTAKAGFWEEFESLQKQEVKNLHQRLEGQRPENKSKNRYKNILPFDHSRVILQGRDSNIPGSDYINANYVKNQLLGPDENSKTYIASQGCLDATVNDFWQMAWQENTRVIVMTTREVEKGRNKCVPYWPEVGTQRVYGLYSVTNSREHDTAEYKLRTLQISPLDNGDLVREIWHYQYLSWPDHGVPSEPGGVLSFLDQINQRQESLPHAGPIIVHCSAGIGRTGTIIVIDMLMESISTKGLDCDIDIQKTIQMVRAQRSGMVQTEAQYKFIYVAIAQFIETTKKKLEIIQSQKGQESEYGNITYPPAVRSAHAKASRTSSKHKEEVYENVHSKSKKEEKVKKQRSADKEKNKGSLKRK

The test has as its target FcεRI γ-chain (mouse (endogenous in BMDCs)) (UniProt P20491). In words: co-IP; WT mouse BMDCs treated with curdlan or dZym (50 µg/mL), harvested at indicated time points; lysates precleared with protein A/G beads (4°C, 2 h), incubated with anti-FcRγ Ab at 4°C for 16 h, protein A/G beads 2 h; SDS-PAGE and Western blot for SHP-1, SHP-2, SHIP-1, PTEN.

Results are given in words; binding and its absence hold for the method and conditions named. Binding seen in cells or lysates may run through a third protein. Some entries that bind do so weakly or less than the wild type.

Take “PTEN (phosphatase and tensin homolog) (from UniProt O08586 1-403) (enzyme)”: the binding result was “binds”.

“SH2 domain-containing phosphatase-1 (from UniProt P29351 1-595) (enzyme)”: the binding entry is reported as “binds”.
